Test results taken from patent US20220153832A1.
Results are given in words; binding and its absence hold for the method and conditions named. Some entries that bind do so weakly or less than the wild type.

Protein sequences, listed by entry. Tags and fused reporters are not part of them. Lines headed by an entry give the natural chain unless they say otherwise; changes in a name come on top.
UniProt Q9UEW3: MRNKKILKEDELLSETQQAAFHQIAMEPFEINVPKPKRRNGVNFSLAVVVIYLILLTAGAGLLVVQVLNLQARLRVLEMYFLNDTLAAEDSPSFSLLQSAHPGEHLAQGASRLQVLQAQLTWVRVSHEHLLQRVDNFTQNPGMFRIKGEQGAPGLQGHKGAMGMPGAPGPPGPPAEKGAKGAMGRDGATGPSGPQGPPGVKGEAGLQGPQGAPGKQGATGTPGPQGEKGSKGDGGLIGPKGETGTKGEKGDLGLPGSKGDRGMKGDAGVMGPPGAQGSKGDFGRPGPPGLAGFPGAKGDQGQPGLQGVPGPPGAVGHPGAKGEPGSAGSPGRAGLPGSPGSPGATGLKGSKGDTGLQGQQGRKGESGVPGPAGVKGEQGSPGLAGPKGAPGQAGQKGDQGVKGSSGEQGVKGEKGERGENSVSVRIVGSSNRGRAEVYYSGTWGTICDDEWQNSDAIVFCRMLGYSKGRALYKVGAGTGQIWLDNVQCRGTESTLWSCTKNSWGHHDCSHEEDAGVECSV

Legend:
[1] = molecular target: N-terminally polyhistidine tagged human MARCO ECD (147-520), recombinant (human) (UniProt Q9UEW3); test: ELISA on hMARCO ECD with 2 mM Ca2+, A450-A620
[2] = molecular target: N-terminally polyhistidine tagged human MARCO ECD (147-520), recombinant (human) (UniProt Q9UEW3); test: ELISA on hMARCO ECD with 2 mM EDTA, A450-A620
[3] = molecular target: N-terminally polyhistidine tagged human MARCO ECD (147-520), recombinant (human) (UniProt Q9UEW3); test: calcium dependency ELISA, with and without 2 mM EDTA

- binding [1]: binds
- binding [2]: binds
- binding [3]: binds
B1: PI-3032-AB (antibody, human IgG1, kappa, V domains shown)
VH: EVQLVESGGGLVQPGGSLRLSCAASKFTFSNYGMNWIRQAPGKGLEWIALIYYNSNNKYYADSVKGRFTISRDNSKNTLYLQMNSLRAEDTAVYYCAKSLTGGSDYFDSWGQGTLVTVSS
VL: DIQMTQSPSSLSASVGDRVTITCRASKSIGTFLAWYQQKPGKAPKLLIYSGSTLESGVPSRFSGSGSGTDFTLTISSLQPEDFATYYCQQHDEYPFTFGQGTKLEIKR
